In patent US20170081401A1 (CLOSED JOINT STOCK COMPANY BIOCAD, published 2017):
These are yes or no findings as the source states them, for the method shown. Some results given as binding are weak or reduced against the parent protein; the word gives no strength.

Amino acid sequences for entries named in this document (tags omitted). Residues count along the entry.
UniProt F6T3G5, residues 24-155: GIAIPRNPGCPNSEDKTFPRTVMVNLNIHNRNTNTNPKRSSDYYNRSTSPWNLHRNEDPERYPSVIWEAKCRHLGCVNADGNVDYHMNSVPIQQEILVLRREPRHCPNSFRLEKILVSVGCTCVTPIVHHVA
UniProt Q16552, residues 20-155: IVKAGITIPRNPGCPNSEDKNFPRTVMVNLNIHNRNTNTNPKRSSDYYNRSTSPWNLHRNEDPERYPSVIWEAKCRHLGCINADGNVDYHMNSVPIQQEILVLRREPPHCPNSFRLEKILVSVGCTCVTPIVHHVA

How the values were obtained:
[1] = biological target: T1, monkey IL-17A (Macaca mulatta) (Macaca mulatta, UniProt F6T3G5 24-155); test: BLI (OctetRed 96), BCD085 immobilized on AR2G sensors, monkey (Macaca mulatta) IL-17A as analyte, 30 C
human IL-17A [2] = biological target: T2, human IL-17A (human, UniProt Q16552 20-155, limits assumed); test: BLI (OctetRed 96), BCD085 immobilized on AR2G sensors, human IL-17A as analyte, 30 C
human IL-17A [3] = biological target: T2, human IL-17A; test: BLI, OctetRed 96, BCD085 immobilized on AR2G sensors, IL-17A 126 nM to 2 nM, 1:1 model
[4] = biological target: T1, monkey IL-17A (Macaca mulatta); test: as above

Measured: binding

B1: BCD085 monoclonal anti-IL-17A antibody (antibody, V domains shown)
VH: QVQLVQSGGGLVQPGGSLRLSCAADGFTFSNYAMSWVRQAPGKGLEWVSRIEGGIGSSTYAVDSVKDRFTISRDDAKNTLYLQMSSLKTEDTAVYYCAVNYYGMYYWGQGTLVTVSS
VL: QSVLTQPPSVSVAPGKTVTISCTGTSEDVGFGNYVSWYQHLPGTAPKLLIYRVNTRPSGVPDRFSGSQSGNTASLTISGLQAEDEADYYCSSYKAGGTYVFGGGTKLTVLG
notes: Full-length antibody produced in CHO-S cells; also called the candidate; monoclonal anti-IL-17A antibody of the invention
binds: [1] | human IL-17A [2] | human IL-17A [3] | [4]
